These are yes or no findings as the source states them, for the method shown. In cells and extracts the contact can be indirect. These calls come from enrichment with a bait or labelling near it, and not all partners need be listed. Sequences can lack the tags named with a protein.
T1: EGFP-hPMP22-BioID2 recombinant fusion protein (peripheral myelin protein 22) (human) (UniProt Q01453)
T1 sequence: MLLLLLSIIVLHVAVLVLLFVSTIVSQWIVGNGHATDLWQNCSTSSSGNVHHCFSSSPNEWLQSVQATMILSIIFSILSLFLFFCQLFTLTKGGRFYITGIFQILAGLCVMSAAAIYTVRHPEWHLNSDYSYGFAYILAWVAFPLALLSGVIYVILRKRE

The chains behind the UniProt entries cited, without tags or fusion partners. Residues count along the entry.
UniProt P17301, residues 30-1181: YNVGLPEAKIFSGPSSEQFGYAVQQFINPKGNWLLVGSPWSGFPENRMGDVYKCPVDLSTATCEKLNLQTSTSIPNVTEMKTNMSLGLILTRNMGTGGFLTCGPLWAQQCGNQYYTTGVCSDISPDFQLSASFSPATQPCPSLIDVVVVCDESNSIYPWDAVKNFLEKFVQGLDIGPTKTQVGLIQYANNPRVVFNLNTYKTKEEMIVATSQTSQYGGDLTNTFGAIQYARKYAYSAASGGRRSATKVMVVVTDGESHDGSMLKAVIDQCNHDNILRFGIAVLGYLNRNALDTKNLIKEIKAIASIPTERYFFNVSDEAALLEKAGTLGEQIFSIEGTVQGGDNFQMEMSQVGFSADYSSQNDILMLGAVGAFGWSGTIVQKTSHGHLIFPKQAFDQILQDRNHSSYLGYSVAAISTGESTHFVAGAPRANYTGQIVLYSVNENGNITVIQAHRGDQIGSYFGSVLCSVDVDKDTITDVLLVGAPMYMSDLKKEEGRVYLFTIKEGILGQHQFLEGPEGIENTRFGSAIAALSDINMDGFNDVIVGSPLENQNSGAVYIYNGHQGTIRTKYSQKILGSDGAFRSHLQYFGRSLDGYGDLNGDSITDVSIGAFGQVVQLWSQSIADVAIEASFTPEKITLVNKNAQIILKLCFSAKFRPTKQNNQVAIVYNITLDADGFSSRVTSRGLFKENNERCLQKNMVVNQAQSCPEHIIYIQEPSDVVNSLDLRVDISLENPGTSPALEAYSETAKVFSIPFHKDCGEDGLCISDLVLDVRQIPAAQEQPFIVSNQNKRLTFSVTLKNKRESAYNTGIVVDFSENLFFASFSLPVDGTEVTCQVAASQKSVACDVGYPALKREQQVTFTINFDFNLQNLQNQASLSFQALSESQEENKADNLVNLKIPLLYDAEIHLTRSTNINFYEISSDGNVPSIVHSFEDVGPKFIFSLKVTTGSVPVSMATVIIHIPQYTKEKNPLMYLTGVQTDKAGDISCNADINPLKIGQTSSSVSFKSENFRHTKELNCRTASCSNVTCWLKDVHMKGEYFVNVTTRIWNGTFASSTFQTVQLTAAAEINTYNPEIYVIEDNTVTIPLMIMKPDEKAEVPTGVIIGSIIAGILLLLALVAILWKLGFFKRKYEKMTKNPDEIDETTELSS


Key:
[1] = target: T1, EGFP-hPMP22-BioID2 recombinant fusion protein (peripheral myelin protein 22) (human); experiment: proximity labelling; BioID2 pull-downs (streptavidin beads) of the three cell lines cultured for 3 days, input and bound fractions on western blot with anti-ITGA2
[2] = target: T1, EGFP-hPMP22-BioID2 recombinant fusion protein (peripheral myelin protein 22) (human); experiment: proximity labelling; BioID2 in live stably transfected human Schwann cells, 50 µM biotin for 3 days; RIPA extract, streptavidin Dynabeads pull-down of biotinylated proteins, trypsin digest, LC-MS/MS; compared with control-transfected (EGFP-BioID2) and untransfected CRL cells

binding [1]	binding [2]	Molecule
binds	binds	Integrin alpha-2 (ITGA2) (from UniProt P17301 30-1181) (receptor)
–	binds	Phospholipid-transporting ATPase IC (ATP8B1) (protein, UniProt O43520 1-1251) MSTERDSETTFDEDSQPNDEVVPYSDDETEDELDDQGSAVEPEQNRVNREAEENREPFRKECTWQVKANDRKYHEQPHFMNTKFLCIKESKYANNAIKTYKYNAFTFIPMNLFEQFKRAANLYFLALLILQAVPQISTLAWYTTLVPLLVVLGVTAIKDLVDDVARHKMDKEINNRTCEVIKDGRFKVAKWKEIQVGDVIRLKKNDFVPADILLLSSSEPNSLCYVETAELDGETNLKFKMSLEITDQYLQREDTLATFDGFIECEEPNNRLDKFTGTLFWRNTSFPLDADKILLRGCVIRNTDFCHGLVIFAGADTKIMKNSGKTRFKRTKIDYLMNYMVYTIFVVLILLSAGLAIGHAYWEAQVGNSSWYLYDGEDDTPSYRGFLIFWGYIIVLNTMVPISLYVSVEVIRLGQSHFINWDLQMYYAEKDTPAKARTTTLNEQLGQIHYIFSDKTGTLTQNIMTFKKCCINGQIYGDHRDASQHNHNKIEQVDFSWNTYADGKLAFYDHYLIEQIQSGKEPEVRQFFFLLAVCHTVMVDRTDGQLNYQAASPDEGALVNAARNFGFAFLARTQNTITISELGTERTYNVLAILDFNSDRKRMSIIVRTPEGNIKLYCKGADTVIYERLHRMNPTKQETQDALDIFANETLRTLCLCYKEIEEKEFTEWNKKFMAASVASTNRDEALDKVYEEIEKDLILLGATAIEDKLQDGVPETISKLAKADIKIWVLTGDKKETAENIGFACELLTEDTTICYGEDINSLLHARMENQRNRGGVYAKFAPPVQESFFPPGGNRALIITGSWLNEILLEKKTKRNKILKLKFPRTEEERRMRTQSKRRLEAKKEQRQKNFVDLACECSAVICCRVTPKQKAMVVDLVKRYKKAITLAIGDGANDVNMIKTAHIGVGISGQEGMQAVMSSDYSFAQFRYLQRLLLVHGRWSYIRMCKFLRYFFYKNFAFTLVHFWYSFFNGYSAQTAYEDWFITLYNVLYTSLPVLLMGLLDQDVSDKLSLRFPGLYIVGQRDLLFNYKRFFVSLLHGVLTSMILFFIPLGAYLQTVGQDGEAPSDYQSFAVTIASALVITVNFQIGLDTSYWTFVNAFSIFGSIALYFGIMFDFHSAGIHVLFPSAFQFTGTASNALRQPYIWLTIILAVAVCLLPVVAIRFLSMTIWPSESDKIQKHRKRLKAEEQWQRRQQVFRRGVSTRRSAYAFSHQRGYADLISSGRSIRKKRSPLDAIVADGTAEYRRTGDS
